Reference: PubChem BioAssay AID1259308 (NCATS, 2017)
Test: 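Knock-downs that increase output of a recombinant reporter protein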 (primary screen). Cells: human HEK293 embryonic kidney cells stably expressing firefly luciferase (HEK-CMV-Luc2-Hygro). Reagents: single siRNA against human genes, 0.8 pmol siRNA per well. Duration: 72 h. Measurement: 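Luciferase light (ONE-Glo) measured on one replicate plate set and viability (CellTiter-Glo) on the other, scaled to a negative control siRNA, with robust z-scores and luciferase per cell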. Scale: total luciferase, z-score and total luciferase, % of control: higher = more reporter protein produced; luciferase per cell, z-score: higher = more reporter output per viable cell; viable cells, % of control: higher = more viable cells. Rule for the call: 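An siRNA counts as active if its total luciferase robust z-score exceeds 3; genes with two or more such siRNAs out of three were retested with fresh siRNAs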. Calls: active = raised luciferase; inactive = no rise.
Shown is a random part of about 59,000 reagents. In the full data, about 1,510 (2.6%) got an active call. 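Calls use total luciferase alone and ignore viability, so some active siRNAs may act by altering cell number.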 The numbers tell different reagents against one gene apart. Reagent sequences are not shown.

| gene knocked down | siRNA no. | total luciferase, z-score | total luciferase, % of control | luciferase per cell, z-score | viable cells, % of control | call |
| --- | --- | --- | --- | --- | --- | --- |
| DRP2 (GeneID 1821) | 1 | -0.734 | 67.3 | -0.343 | 82.3 | inactive |
| DRP2 (GeneID 1821) | 2 | 1.93 | 120 | 1.55 | 89.5 | inactive |
| DRP2 (GeneID 1821) | 3 | 0.379 | 89.4 | 0.0914 | 97.6 | inactive |
| FUOM (GeneID 282969) | 1 | -0.502 | 71.9 | -0.549 | 92.8 | inactive |
| FUOM (GeneID 282969) | 2 | 1.42 | 110 | 2.02 | 72.3 | inactive |
| FUOM (GeneID 282969) | 3 | 0.228 | 86.4 | 0.0843 | 94.5 | inactive |
| WASH5P (GeneID 375690) | 1 | 0.255 | 87 | 0.795 | 78.8 | inactive |
| WASH5P (GeneID 375690) | 2 | -0.15 | 78.9 | -0.137 | 91.4 | inactive |
| WASH5P (GeneID 375690) | 3 | 0.451 | 90.9 | 1.47 | 68.9 | inactive |
| SELL (GeneID 6402) | 1 | 0.00604 | 82 | -0.632 | 108 | inactive |
| SELL (GeneID 6402) | 2 | -0.831 | 65.4 | -0.972 | 94.3 | inactive |
| SELL (GeneID 6402) | 3 | -0.187 | 78.2 | -0.359 | 96 | inactive |
| MTERF2 (GeneID 80298) | 1 | 3.21 | 146 | 2.51 | 84.1 | active |
| MTERF2 (GeneID 80298) | 2 | -0.708 | 67.8 | -0.564 | 87.9 | inactive |
| MTERF2 (GeneID 80298) | 3 | -0.377 | 74.4 | -0.269 | 89.2 | inactive |
| HPR (GeneID 3250) | 1 | -0.111 | 79.7 | -0.737 | 108 | inactive |
| HPR (GeneID 3250) | 2 | -0.676 | 68.5 | -1.01 | 99.8 | inactive |
| HPR (GeneID 3250) | 3 | 0.269 | 87.2 | -0.232 | 104 | inactive |
| GMNC (GeneID 647309) | 1 | 0.969 | 101 | 0.998 | 86.9 | inactive |
| GMNC (GeneID 647309) | 2 | 4.42 | 170 | 3.62 | 73.2 | active |
| GMNC (GeneID 647309) | 3 | 0.289 | 87.6 | 0.259 | 91.5 | inactive |
| UPF3B (GeneID 65109) | 1 | -0.391 | 74.1 | -0.88 | 104 | inactive |
| UPF3B (GeneID 65109) | 2 | -0.377 | 74.4 | -0.843 | 104 | inactive |
| UPF3B (GeneID 65109) | 3 | 0.143 | 84.7 | -0.59 | 111 | inactive |
| CD7 (GeneID 924) | 1 | 0.153 | 84.9 | -0.15 | 98.7 | inactive |
| CD7 (GeneID 924) | 2 | -0.363 | 74.7 | 0.134 | 80.6 | inactive |
| CD7 (GeneID 924) | 3 | 1.38 | 109 | 0.594 | 105 | inactive |
| LIPE (GeneID 3991) | 1 | -1.04 | 61.1 | -0.369 | 75.3 | inactive |
| LIPE (GeneID 3991) | 2 | 1.32 | 108 | 1.13 | 89.8 | inactive |
| LIPE (GeneID 3991) | 3 | 3.17 | 145 | 2.71 | 79.3 | active |
| TTLL8 (GeneID 164714) | 1 | -0.71 | 67.8 | 0.199 | 71.9 | inactive |
| TTLL8 (GeneID 164714) | 2 | 0.75 | 96.8 | 0.726 | 89.4 | inactive |
| TTLL8 (GeneID 164714) | 3 | -3.95 | 3.29 | -6.27 | 19.2 | inactive |
| AGBL2 (GeneID 79841) | 1 | 0.116 | 84.2 | 0.86 | 75 | inactive |
| AGBL2 (GeneID 79841) | 2 | -1.48 | 52.4 | -1.03 | 76.7 | inactive |
| AGBL2 (GeneID 79841) | 3 | -0.301 | 75.9 | 0.195 | 80.6 | inactive |
| RAB5IF (GeneID 55969) | 1 | -0.141 | 79.1 | 0.101 | 86.1 | inactive |
| RAB5IF (GeneID 55969) | 2 | -0.318 | 75.6 | -0.717 | 102 | inactive |
| RAB5IF (GeneID 55969) | 3 | -0.27 | 76.5 | -0.185 | 89.8 | inactive |
| GSTM2 (GeneID 2946) | 1 | 1.07 | 103 | 0.42 | 103 | inactive |
| GSTM2 (GeneID 2946) | 2 | -1.01 | 61.9 | -1.55 | 104 | inactive |
| GSTM2 (GeneID 2946) | 3 | 2.31 | 128 | 2.41 | 75.6 | inactive |
| ALKAL1 (GeneID 389658) | 1 | -0.281 | 76.3 | -0.45 | 96 | inactive |
| ALKAL1 (GeneID 389658) | 2 | -1.82 | 45.6 | -1.06 | 67.4 | inactive |
| ALKAL1 (GeneID 389658) | 3 | -0.0756 | 80.4 | -0.536 | 103 | inactive |
| DOCK6 (GeneID 57572) | 1 | 0.564 | 93.1 | 0.732 | 85.8 | inactive |
| DOCK6 (GeneID 57572) | 2 | -0.618 | 69.6 | 0.177 | 74.2 | inactive |
| DOCK6 (GeneID 57572) | 3 | 0.265 | 87.2 | 0.727 | 80.4 | inactive |
| EFNA4 (GeneID 1945) | 1 | 0.0743 | 83.4 | -0.0677 | 94.8 | inactive |
| EFNA4 (GeneID 1945) | 2 | -1.14 | 59.2 | -1.4 | 95.6 | inactive |
| EFNA4 (GeneID 1945) | 3 | 0.0505 | 82.9 | 1.3 | 65.7 | inactive |
| CTBS (GeneID 1486) | 1 | 0.31 | 88.1 | 0.0477 | 97.2 | inactive |
| CTBS (GeneID 1486) | 2 | -0.447 | 73 | -1.06 | 108 | inactive |
| CTBS (GeneID 1486) | 3 | -0.451 | 72.9 | -0.937 | 104 | inactive |
| FUT1 (GeneID 2523) | 1 | -0.344 | 75.1 | -0.291 | 90.5 | inactive |
| FUT1 (GeneID 2523) | 2 | -2.1 | 40.1 | -1.84 | 72.8 | inactive |
| FUT1 (GeneID 2523) | 3 | -1.52 | 51.7 | -2.06 | 99.3 | inactive |
| NFKBIZ (GeneID 64332) | 1 | -0.628 | 69.4 | 0.0675 | 76.2 | inactive |
| NFKBIZ (GeneID 64332) | 2 | 0.359 | 89 | 0.136 | 96 | inactive |
| NFKBIZ (GeneID 64332) | 3 | -0.00615 | 81.8 | 0.0426 | 90.3 | inactive |
| CCNI (GeneID 10983) | 1 | -0.248 | 77 | -0.62 | 101 | inactive |
| CCNI (GeneID 10983) | 2 | -0.761 | 66.8 | -1.6 | 114 | inactive |
| CCNI (GeneID 10983) | 3 | -0.0658 | 80.6 | 0.611 | 76.7 | inactive |
| PFKP (GeneID 5214) | 1 | -0.486 | 72.2 | 0.0925 | 78.8 | inactive |
| PFKP (GeneID 5214) | 2 | -0.0623 | 80.6 | -0.241 | 96 | inactive |
| PFKP (GeneID 5214) | 3 | 0.61 | 94 | 0.885 | 83.2 | inactive |
| CTPS2 (GeneID 56474) | 1 | 0.0389 | 82.7 | -0.546 | 107 | inactive |
| CTPS2 (GeneID 56474) | 2 | 0.219 | 86.2 | 0.617 | 81.9 | inactive |
| CTPS2 (GeneID 56474) | 3 | -0.893 | 64.1 | -0.464 | 81 | inactive |
| PSG3 (GeneID 5671) | 1 | 0.388 | 89.6 | 0.721 | 82.8 | inactive |
| PSG3 (GeneID 5671) | 2 | -0.264 | 76.6 | 0.159 | 82.1 | inactive |
| PSG3 (GeneID 5671) | 3 | -1.3 | 56.1 | -1.97 | 105 | inactive |
| LOC642696 (GeneID 642696) | 1 | 0.867 | 99.1 | -0.0523 | 112 | inactive |
| LOC642696 (GeneID 642696) | 2 | 0.429 | 90.4 | 0.0243 | 100 | inactive |
| LOC642696 (GeneID 642696) | 3 | -0.648 | 69 | -1.69 | 120 | inactive |
